We go through 38 sequences from paper PMC7862700.

Protein sequences, listed by entry. Tags and fused reporters are not part of them. Lines headed by an entry give the natural chain unless they say otherwise; changes in a name come on top.
UniProt Q9Y603: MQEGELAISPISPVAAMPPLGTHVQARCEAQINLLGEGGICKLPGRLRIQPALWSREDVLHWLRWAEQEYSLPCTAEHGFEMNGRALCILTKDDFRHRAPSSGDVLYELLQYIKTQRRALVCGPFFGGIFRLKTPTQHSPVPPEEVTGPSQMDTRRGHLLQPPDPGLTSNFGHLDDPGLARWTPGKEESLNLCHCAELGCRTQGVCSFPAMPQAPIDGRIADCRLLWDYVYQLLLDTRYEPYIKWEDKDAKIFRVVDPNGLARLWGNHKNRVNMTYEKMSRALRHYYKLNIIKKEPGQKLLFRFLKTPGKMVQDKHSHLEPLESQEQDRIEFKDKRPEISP

The list shows a part of the results, in another mix than the full data. At the low end of the ranking the order means little.

This test addresses ETV7 (UniProt Q9Y603). The test is described as follows: DAPPL (digital affinity profiling via proximity ligation, sequencing). The conditions noted are these: 10 mM Tris-HCl pH 7.5, 50 mM NaCl, 1 mM DTT, 4% glycerol, room temperature, 30 min; GST-TFs on glutathione beads, 16-mer random dsDNA library, 0.1% …; high values mean tight binding; double strand, one strand shown; scale: fold enrichment (6-mer frequency, TF over GST control).
GCTCTG gave a binding signal of 1.17.
In the case of ATCTAA, the binding signal is 1.22.
TACTAC showed a binding signal of 1.47.
In turn, TGGACC yielded a binding signal of 1.03.
Take ATGCGG: the binding signal came out at 1.25.
For ATCACT the value was 1.26.
For CGCCCG the value was 1.08; for GTTCCA, 1.12.
For TTAAAC the value was 1.14.
Regarding GTAAAA, the binding signal worked out at 1.18.
Regarding TTTATG, the binding signal was 1.32.
Turning to CTCGAT, the binding signal was 1.31.
Take TATAAC: the binding signal turned out to be 1.26.
Consider CCTCTA, for which the binding signal came out at 1.36.
For GCGTTC the value was 1.23; for TTGCAC, 1.26; for GTTTTC, 1.36.
With AGAATT, the binding signal was 1.13.
As to AGACCT, the binding signal amounted to 0.843.
As to CTGGGT, the binding signal is 1.1.
Take TGATCT: the binding signal is 1.11.
CGACCG had a binding signal of 1.13.
For the sequence TTTGCT, the binding signal was 1.38.
The sequence GTTAAC had a binding signal of 1.24.
In turn, TTACTG displayed a binding signal of 1.14.
The sequence CTTTTA yielded a binding signal of 1.42.
For TTCCTC the value was 1.96; for TCTACT, 1.32.
For TAGTCT the value was 0.98; for AACCTC, 1.26.
GCTTTC gave a binding signal of 1.31.
As for ACTCGC, the binding signal was determined as 1.09.
For TTGAAT the value was 1.09; for TACGTT, 1.34; for CCTCCC, 1.44.
TGGCTT yielded a binding signal of 1.31.
For the sequence GTCTTA, the binding signal was found to be 1.21.
Sequence GAAATC had a binding signal of 1.46.
